Laboratory results: the supplement of paper PMC12819154, “High-throughput peptide-centric local stability assay extends protein–ligand identification to membrane proteins, tissues and bacteria” (Nature Structural & Molecular Biology, 2025)
This is one part of the list. Most values lie at the level of the controls, where differences are scatter.

Protein sequences, listed by entry. Tags and fused reporters are not part of them. Lines headed by an entry give the natural chain unless they say otherwise; changes in a name come on top.
UniProt Q15111: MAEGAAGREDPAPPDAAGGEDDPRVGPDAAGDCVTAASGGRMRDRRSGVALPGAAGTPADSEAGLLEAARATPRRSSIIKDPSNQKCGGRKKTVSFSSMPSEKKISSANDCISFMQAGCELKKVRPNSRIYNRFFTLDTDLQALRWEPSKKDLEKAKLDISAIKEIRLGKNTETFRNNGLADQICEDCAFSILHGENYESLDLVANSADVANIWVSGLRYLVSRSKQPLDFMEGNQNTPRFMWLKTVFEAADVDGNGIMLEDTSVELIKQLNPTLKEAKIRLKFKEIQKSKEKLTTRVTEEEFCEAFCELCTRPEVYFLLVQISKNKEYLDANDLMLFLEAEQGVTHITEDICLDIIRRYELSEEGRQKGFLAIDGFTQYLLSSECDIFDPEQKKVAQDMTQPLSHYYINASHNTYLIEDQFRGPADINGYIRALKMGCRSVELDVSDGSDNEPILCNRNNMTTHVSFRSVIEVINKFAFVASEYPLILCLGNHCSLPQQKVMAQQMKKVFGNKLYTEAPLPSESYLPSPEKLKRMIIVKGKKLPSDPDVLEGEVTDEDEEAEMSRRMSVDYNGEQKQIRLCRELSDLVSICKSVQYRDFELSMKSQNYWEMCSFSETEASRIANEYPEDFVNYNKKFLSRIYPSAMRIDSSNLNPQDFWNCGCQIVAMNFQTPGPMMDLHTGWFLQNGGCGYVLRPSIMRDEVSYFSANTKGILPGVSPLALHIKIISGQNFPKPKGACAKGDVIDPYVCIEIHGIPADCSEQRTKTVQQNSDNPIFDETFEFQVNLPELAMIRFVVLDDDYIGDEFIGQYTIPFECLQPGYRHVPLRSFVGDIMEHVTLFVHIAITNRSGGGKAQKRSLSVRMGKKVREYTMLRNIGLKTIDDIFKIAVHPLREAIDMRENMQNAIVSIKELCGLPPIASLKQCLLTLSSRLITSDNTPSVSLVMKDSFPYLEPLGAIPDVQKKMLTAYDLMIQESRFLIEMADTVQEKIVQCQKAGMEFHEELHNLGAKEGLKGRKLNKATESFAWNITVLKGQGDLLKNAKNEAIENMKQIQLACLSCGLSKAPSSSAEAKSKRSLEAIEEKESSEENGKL
UniProt Q3MII6: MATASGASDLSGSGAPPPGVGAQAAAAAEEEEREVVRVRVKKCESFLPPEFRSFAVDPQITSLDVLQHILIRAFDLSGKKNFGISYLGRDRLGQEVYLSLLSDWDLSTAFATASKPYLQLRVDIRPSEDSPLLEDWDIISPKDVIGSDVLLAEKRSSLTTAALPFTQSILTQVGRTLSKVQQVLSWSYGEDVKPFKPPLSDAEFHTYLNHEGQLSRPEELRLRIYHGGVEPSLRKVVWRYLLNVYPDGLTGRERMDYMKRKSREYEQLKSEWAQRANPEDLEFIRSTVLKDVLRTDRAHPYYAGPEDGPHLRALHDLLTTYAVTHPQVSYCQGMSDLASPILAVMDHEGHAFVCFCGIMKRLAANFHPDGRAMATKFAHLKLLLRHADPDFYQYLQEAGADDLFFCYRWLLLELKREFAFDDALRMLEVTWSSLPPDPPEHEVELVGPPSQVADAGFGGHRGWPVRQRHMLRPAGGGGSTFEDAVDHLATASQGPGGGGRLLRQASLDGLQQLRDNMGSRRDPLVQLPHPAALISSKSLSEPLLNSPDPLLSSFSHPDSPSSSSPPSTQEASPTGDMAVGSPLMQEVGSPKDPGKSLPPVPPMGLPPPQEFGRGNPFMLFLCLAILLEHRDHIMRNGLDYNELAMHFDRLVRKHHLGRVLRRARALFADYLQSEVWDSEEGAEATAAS
UniProt Q3C1V9: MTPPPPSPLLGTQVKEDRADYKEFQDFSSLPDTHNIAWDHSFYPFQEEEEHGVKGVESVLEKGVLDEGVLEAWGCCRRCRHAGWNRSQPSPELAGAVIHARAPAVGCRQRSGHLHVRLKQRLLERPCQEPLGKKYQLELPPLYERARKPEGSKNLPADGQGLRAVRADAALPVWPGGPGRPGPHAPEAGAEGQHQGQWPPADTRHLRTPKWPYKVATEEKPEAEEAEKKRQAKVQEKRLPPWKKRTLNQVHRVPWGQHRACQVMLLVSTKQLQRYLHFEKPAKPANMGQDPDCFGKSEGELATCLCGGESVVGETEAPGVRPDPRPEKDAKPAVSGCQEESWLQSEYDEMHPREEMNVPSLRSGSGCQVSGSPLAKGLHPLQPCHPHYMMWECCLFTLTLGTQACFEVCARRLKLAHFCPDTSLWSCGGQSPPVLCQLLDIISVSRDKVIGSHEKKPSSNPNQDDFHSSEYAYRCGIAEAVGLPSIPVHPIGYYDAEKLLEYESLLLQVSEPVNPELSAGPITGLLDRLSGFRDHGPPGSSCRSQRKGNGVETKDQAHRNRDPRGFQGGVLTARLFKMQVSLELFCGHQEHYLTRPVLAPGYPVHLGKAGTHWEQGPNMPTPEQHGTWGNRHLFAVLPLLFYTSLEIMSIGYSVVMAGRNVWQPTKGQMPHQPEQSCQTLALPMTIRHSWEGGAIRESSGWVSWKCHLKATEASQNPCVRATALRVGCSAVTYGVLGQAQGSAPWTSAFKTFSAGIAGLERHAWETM
UniProt Q15293: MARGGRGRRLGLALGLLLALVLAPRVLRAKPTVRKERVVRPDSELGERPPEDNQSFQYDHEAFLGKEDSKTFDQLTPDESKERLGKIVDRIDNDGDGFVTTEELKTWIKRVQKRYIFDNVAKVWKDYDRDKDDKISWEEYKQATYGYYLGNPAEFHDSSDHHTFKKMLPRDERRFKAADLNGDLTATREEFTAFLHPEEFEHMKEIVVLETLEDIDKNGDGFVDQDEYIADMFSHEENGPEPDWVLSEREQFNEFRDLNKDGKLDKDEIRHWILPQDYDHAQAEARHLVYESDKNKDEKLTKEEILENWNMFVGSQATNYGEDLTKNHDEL
UniProt Q15836, whole entry: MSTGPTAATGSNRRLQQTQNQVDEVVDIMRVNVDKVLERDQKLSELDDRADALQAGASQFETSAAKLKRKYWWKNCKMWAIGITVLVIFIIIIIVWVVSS
UniProt Q3MHD2: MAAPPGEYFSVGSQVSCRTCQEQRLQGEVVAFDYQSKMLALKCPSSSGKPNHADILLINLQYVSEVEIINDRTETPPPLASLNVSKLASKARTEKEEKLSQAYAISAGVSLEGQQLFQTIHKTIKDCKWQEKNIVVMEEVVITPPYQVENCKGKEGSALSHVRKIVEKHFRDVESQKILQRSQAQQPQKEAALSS
UniProt Q15528: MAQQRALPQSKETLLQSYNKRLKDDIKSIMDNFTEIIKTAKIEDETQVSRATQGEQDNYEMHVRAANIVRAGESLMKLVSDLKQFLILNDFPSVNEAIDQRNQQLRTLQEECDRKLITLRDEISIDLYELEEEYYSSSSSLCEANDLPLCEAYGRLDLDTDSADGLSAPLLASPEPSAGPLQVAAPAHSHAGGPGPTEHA
UniProt Q15181: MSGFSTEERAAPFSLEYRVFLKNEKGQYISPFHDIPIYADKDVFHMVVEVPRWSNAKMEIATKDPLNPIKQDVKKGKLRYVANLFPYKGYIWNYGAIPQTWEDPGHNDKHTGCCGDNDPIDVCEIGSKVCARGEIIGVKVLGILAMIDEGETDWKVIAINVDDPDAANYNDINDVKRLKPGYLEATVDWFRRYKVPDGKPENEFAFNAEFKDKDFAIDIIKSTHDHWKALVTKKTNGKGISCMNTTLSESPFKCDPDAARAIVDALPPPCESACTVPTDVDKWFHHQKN
UniProt Q15746, whole entry: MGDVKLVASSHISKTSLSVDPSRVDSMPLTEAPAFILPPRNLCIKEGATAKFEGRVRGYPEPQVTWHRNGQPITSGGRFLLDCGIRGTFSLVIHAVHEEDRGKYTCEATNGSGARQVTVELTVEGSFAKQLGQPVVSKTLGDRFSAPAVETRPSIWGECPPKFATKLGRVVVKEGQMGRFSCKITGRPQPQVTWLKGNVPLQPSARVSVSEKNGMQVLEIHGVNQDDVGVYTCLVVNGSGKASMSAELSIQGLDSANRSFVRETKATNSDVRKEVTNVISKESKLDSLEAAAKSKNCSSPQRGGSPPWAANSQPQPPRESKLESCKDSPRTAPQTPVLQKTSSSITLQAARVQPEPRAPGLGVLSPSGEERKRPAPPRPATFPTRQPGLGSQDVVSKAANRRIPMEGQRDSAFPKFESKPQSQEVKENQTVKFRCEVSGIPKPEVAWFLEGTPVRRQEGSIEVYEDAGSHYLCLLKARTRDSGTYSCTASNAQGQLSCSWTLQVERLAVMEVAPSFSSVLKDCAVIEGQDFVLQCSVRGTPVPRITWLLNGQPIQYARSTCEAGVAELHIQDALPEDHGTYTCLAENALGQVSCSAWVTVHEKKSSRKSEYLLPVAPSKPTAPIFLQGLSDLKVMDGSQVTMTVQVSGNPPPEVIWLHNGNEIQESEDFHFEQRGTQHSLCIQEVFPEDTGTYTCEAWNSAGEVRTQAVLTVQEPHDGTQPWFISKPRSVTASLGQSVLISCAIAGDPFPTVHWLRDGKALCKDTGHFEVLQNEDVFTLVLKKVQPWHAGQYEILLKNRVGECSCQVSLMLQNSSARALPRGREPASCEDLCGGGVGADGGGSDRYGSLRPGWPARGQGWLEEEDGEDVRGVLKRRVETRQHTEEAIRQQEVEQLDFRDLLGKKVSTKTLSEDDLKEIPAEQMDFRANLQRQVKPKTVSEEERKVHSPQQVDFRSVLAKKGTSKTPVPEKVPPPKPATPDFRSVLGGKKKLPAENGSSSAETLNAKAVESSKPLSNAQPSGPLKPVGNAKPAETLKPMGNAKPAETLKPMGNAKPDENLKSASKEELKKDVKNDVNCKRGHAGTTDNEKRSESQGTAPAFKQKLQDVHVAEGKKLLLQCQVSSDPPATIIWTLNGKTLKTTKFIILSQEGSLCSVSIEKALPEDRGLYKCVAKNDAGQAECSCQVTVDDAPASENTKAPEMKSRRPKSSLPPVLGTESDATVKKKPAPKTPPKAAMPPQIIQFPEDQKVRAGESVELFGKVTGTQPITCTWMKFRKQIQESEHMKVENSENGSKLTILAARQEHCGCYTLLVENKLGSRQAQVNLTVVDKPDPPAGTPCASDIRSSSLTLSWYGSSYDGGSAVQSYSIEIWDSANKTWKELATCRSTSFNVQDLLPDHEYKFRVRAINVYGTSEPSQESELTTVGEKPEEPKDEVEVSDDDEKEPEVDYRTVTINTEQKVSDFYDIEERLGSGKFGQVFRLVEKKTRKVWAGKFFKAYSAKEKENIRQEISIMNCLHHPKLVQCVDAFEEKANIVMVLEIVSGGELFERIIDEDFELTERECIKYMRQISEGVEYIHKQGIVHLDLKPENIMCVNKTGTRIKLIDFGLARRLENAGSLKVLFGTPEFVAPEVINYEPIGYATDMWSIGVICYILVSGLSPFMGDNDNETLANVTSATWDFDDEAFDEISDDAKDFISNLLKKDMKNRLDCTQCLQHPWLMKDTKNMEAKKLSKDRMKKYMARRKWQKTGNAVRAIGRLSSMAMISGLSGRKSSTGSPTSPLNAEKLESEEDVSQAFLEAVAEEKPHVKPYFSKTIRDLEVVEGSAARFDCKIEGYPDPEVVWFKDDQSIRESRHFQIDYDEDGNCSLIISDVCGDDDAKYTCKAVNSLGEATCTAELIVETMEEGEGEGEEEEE
UniProt Q15628: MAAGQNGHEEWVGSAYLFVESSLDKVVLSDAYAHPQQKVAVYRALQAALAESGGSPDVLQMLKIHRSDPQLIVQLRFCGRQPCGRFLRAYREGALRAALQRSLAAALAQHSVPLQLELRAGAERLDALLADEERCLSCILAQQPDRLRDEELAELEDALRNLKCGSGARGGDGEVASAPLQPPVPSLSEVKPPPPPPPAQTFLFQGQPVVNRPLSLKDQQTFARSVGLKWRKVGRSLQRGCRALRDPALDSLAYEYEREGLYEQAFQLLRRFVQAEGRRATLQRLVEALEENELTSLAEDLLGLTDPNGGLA
UniProt Q16610: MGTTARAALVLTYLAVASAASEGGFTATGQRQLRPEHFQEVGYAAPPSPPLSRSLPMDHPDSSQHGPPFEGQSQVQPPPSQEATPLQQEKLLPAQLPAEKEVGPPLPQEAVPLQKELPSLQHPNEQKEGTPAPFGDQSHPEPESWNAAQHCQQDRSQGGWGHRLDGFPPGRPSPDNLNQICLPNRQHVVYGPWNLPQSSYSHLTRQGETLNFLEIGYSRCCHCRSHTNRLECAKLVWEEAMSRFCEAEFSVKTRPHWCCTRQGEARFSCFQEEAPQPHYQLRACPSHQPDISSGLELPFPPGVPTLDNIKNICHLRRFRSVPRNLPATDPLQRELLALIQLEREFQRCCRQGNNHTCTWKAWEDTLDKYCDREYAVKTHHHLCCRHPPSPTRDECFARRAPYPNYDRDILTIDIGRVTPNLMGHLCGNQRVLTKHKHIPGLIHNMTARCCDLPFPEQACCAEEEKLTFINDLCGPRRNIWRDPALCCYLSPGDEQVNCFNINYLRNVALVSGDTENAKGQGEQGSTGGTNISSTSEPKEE

Compound: CN[C@@H]1C[C@H]2O[C@@](C)([C@@H]1OC)n1c3ccccc3c3c4c(c5c6ccccc6n2c5c31)C(=O)NC4 [staurosporine]
Experiment: log2 fold change of tryptic peptide abundance, ligand vs vehicle (limited proteolysis) (log2 ratio); higher = more trypsin-susceptible (destabilized)
Conditions: ligand concentration: 20 uM; sample: K562 cleared lysate; digestion: 4 min, 22 C (HT-PELSA RT4min, Orbitrap Astral)

Target | log2 fold change
PLCL1 (peptide sequence: KMLTAYDLMIQESR, peptide start residue: 966) (UniProt Q15111) | 0.802
TBC1D25 (peptide sequence: RDPLVQLPHPAALISSK, peptide start residue: 521) (UniProt Q3MII6) | 0.148
SMAD2 (peptide sequence: AIENCEYAFNLKK, peptide start residue: 145) (UniProt Q15796) | -0.212
SLC9A3R2 (peptide sequence: LVEVNGVNVEGETHHQVVQR, peptide start residue: 56) (UniProt Q15599) | -0.226
CWF19L2 (peptide sequence: DRYATTDTAK, peptide start residue: 316) (UniProt Q2TBE0) | -0.609
UniProt Q3C1V9 (peptide sequence: TLNQVHR, peptide start residue: 246) | -0.263
RCN1 (peptide sequence: DGKLDKDEIR, peptide start residue: 261) (UniProt Q15293) | 0.608
ZNF800 (peptide sequence: VKQDSESPK, peptide start residue: 451) (UniProt Q2TB10) | -0.355
VAMP3 (peptide sequence: LQQTQNQVDEVVDIMR, peptide start residue: 15) (UniProt Q15836) | -0.068
PGS1 (peptide sequence: LLGLLPGRPGLAALLGR, peptide start residue: 17) (UniProt Q32NB8) | -0.195
UniProt Q3MHD2 (peptide sequence: EGSALSHVR, peptide start residue: 155) | 0.32
ZNF74 (peptide sequence: AFTWSTNLLEHR, peptide start residue: 284) (UniProt Q16587) | -0.277
UniProt Q15776 (peptide sequence: QIDILGRPVSAR, peptide start residue: 132) | -0.201
MED22 (peptide sequence: TLQEECDRK, peptide start residue: 107) (UniProt Q15528) | -0.372
RALBP1 (peptide sequence: AKAEQQAQEDEEPEWR, peptide start residue: 599) (UniProt Q15311) | -0.162
POLD3 (peptide sequence: EVTNASAAGNKAPGK, peptide start residue: 217) (UniProt Q15054) | -0.224
ACOX1 (peptide sequence: TSNHAIVLAQLITK, peptide start residue: 183) (UniProt Q15067) | 0.455
PPA1 (peptide sequence: GISCMNTTLSESPFKCDPDAAR, peptide start residue: 239) (UniProt Q15181) | 0.946
MYLK (peptide sequence: SASKEELK, peptide start residue: 517) (UniProt Q15746) | 0.222
NCOA2 (peptide sequence: QMHQQQQVQQR, peptide start residue: 1251) (UniProt Q15596) | -0.829
RASA2 (peptide sequence: DAIYTIPVK, peptide start residue: 648) (UniProt Q15283) | 0.159
TRADD (peptide sequence: RFVQAEGR, peptide start residue: 271) (UniProt Q15628) | -0.713
SF3A2 (peptide sequence: EAPAQPAPEKVKVEVK, peptide start residue: 92) (UniProt Q15428) | -0.265
AAK1 (peptide sequence: LGEGKHPEK, peptide start residue: 719) (UniProt Q2M2I8) | 0.187
UniProt Q15287 (peptide sequence: MDLSGVKK, peptide start residue: 1) | 0.382
PSMD5 (peptide sequence: LGPLFSLLNENHR, peptide start residue: 46) (UniProt Q16401) | 0.0819
PPP2R5E (peptide sequence: SSAPTTPPSVDKVDGFSR, peptide start residue: 2) (UniProt Q16537) | -0.092
ECM1 (peptide sequence: QLRPEHFQEVGYAAPPSPPLSR, peptide start residue: 32) (UniProt Q16610) | -0.205

As a working copy, some entries already given.
Target | log2 fold change
TBC1D25 (peptide sequence: RDPLVQLPHPAALISSK, peptide start residue: 521) (UniProt Q3MII6) | 0.148
SMAD2 (peptide sequence: AIENCEYAFNLKK, peptide start residue: 145) (UniProt Q15796) | -0.212
SLC9A3R2 (peptide sequence: LVEVNGVNVEGETHHQVVQR, peptide start residue: 56) (UniProt Q15599) | -0.226
CWF19L2 (peptide sequence: DRYATTDTAK, peptide start residue: 316) (UniProt Q2TBE0) | -0.609
UniProt Q3C1V9 (peptide sequence: TLNQVHR, peptide start residue: 246) | -0.263
RCN1 (peptide sequence: DGKLDKDEIR, peptide start residue: 261) (UniProt Q15293) | 0.608
